Test in all cases: co-IP
Test [1] addresses T1, 3HA-Red1^367-827 (Saccharomyces cerevisiae) (UniProt P14291).
T1 sequence: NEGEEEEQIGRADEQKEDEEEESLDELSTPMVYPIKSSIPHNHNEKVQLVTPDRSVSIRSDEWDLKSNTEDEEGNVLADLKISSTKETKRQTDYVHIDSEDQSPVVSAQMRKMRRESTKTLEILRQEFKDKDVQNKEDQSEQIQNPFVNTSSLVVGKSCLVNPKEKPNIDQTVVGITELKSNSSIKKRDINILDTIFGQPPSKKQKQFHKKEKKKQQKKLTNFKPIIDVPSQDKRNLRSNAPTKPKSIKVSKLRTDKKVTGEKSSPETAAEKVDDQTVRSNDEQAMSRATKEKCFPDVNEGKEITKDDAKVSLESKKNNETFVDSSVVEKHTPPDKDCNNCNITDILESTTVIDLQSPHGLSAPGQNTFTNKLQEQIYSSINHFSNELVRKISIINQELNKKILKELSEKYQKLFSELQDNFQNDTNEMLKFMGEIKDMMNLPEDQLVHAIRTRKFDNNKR

Test [2] addresses T2, 3HA-Red1^1-730 (Saccharomyces cerevisiae) (UniProt P14291).
T2 sequence: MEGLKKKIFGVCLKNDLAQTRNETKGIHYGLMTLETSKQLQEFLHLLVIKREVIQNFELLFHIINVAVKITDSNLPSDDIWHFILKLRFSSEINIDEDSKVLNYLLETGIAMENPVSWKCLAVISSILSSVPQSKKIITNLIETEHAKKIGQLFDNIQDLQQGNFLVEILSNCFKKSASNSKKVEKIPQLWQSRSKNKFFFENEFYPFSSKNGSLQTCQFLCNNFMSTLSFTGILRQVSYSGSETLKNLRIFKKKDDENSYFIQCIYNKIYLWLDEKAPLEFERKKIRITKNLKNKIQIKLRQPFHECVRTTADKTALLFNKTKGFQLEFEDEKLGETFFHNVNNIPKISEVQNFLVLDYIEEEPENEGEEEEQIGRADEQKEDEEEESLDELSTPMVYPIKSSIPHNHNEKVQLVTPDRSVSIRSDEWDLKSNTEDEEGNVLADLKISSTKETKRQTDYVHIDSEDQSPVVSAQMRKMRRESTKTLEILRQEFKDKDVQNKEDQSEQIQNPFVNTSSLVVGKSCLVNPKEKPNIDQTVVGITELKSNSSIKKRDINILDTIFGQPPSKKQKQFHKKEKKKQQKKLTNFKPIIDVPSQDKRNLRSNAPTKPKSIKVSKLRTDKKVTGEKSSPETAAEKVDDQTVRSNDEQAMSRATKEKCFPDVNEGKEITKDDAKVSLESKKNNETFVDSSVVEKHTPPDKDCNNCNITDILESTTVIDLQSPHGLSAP

The target in test [3] is T3, 3HA-Red1 (full length, Red1 1-827), pGAL1::3HA-RED1 (Saccharomyces cerevisiae) (UniProt P14291).
T3 sequence: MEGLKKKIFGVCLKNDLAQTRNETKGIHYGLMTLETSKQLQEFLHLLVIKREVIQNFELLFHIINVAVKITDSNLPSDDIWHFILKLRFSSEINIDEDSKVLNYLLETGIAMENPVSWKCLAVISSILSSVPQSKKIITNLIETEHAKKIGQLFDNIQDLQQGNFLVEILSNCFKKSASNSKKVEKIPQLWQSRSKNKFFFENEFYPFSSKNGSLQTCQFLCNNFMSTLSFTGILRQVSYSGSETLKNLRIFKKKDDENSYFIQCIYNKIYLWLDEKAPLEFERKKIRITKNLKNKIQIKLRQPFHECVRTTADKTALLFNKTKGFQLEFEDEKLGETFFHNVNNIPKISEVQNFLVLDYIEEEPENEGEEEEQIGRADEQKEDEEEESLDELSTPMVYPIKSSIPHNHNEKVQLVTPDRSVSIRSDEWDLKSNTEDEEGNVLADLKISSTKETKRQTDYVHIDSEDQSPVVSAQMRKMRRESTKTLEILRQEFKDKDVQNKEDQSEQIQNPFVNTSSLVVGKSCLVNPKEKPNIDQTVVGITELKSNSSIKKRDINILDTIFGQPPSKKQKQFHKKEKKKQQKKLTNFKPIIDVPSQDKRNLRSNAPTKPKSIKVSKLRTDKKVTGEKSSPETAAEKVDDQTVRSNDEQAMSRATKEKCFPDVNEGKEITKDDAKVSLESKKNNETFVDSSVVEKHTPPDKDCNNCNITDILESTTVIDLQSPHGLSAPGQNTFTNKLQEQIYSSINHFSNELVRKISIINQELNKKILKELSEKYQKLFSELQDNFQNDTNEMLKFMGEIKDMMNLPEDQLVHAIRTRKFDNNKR

These are yes or no findings as the source states them, for the method shown. Binding seen in cells or lysates may run through a third protein. Some results given as binding are weak or reduced against the parent protein; the word gives no strength. Tags and fused reporters may be left off the sequences shown.

B1: GFP-Mek1 (pGAL1::GFP-MEK1) (enzyme, UniProt P24719 1-497)
chain: MRPLYSCNLATKDDIEMAGGVAPAHLEVNVGGYNTEQTIPIVKHQLVKVGRNDKECQLVLTNPSISSVHCVFWCVFFDEDSIPMFYVKDCSLNGTYLNGLLLKRDKTYLLKHCDVIELSQGSEENDIKKTRLVFMINDDLQSSLDPKLLDQMGFLREVDQWEITNRIVGNGTFGHVLITHNSKERDEDVCYHPENYAVKIIKLKPNKFDKEARILLRLDHPNIIKVYHTFCDRNNHLYIFQDLIPGGDLFSYLAKGDCLTSMSETESLLIVFQILQALNYLHDQDIVHRDLKLDNILLCTPEPCTRIVLADFGIAKDLNSNKERMHTVVGTPEYCAPEVGFRANRKAYQSFSRAATLEQRGYDSKCDLWSLGVITHIMLTGISPFYGDGSERSIIQNAKIGKLNFKLKQWDIVSDNAKSFVKDLLQTDVVKRLNSKQGLKHIWIAKHLSQLERLYYKKILCNNEGPKLESINSDWKRKLPKSVIISQAIPKKKKVLE
Take B1: the binding entry in test [1], in test [2] and in test [3] was “binds” each time.

B2: Hop1 (pGAL1::HOP1), untagged (protein, UniProt P20050 1-605)
chain: MSNKQLVKPKTETKTEITTEQSQKLLQTMLTMSFGCLAFLRGLFPDDIFVDQRFVPEKVEKNYNKQNTSQNNSIKIKTLIRGKSAQADLLLDWLEKGVFKSIRLKCLKALSLGIFLEDPTDLLENYIFSFDYDEENNVNINVNLSGNKKGSKNADPENETISLLDSRRMVQQLMRRFIIITQSLEPLPQKKFLTMRLMFNDNVDEDYQPELFKDATFDKRATLKVPTNLDNDAIDVGTLNTKHHKVALSVLSAATSSMEKAGNTNFIRVDPFDLILQQQEENKLEESVPTKPQNFVTSQTTNVLGNLLNSSQASIQPTQFVSNNPVTGICSCECGLEVPKAATVLKTCKSCRKTLHGICYGNFLHSSIEKCFTCIFGPSLDTKWSKFQDLMMIRKVFRFLVRKKKGFPASITELIDSFINVEDQNNEVKERVAFALFVFFLDETLCLDNGGKPSQTIRYVTSSVLVDVKGIVIPNTRKQLNVNHEYKWHFTTSSPKAESFYQEVLPNSRKQVESWLQDITNLRKVYSEALSPSSTLQELDLNSSLPTQDPIISGQKRRRYDLDEYLEEDKSSVVNDTIKAKDFDESVPAKIRKISVSKKTLKSNW
Regarding B2, the binding entry in test [1] is recorded as “no binding”; in test [2], “binds”; in test [3], “binds”.

The values are drawn from paper doi:10.1101/2022.04.06.487319 (bioRxiv, 2022).
